For at least one compound, name, drawing or mass did not settle the structure.
Experiments:
[1] = test system: breast tumors induced by 7,12-Dimethylbenz(a)anthracene (DMBA); assay: DMBA-induced breast tumor pre-clinical studies; format: in vivo, rodents; conditions: subcutaneous injection
[2] = test system: progesterone-induced endometrial proliferation; assay: Anti-Clauberg study, vaginal versus oral (McPhail index); design: species or system rabbits; conditions: rabbit, in vivo
Description: Another anti-Clauberg study was run in which immature estradiol-primed rabbits were administered progesterone alone (vehicle control) or were co-administered progesterone and three doses of CDB-4124 by either vaginal or oral administration. The inhibition of progesterone-induced endometrial proliferation at each dose was assayed. FIG. 3 illustrates the decrease in the McPhail index following increasing doses of CDB-4124 administered by either route. Maximal inhibition (i.e. a decrease in the McPhail index to 1.5) occurred at 0.2 mg/kg CDB-4124 when administered vaginally, compared to 0.8 mg/kg when administered orally.

[3] = Initial studies conducted with Proellex (efficacy); format: in vivo, human

COCC(=O)[C@@]1(OC(C)=O)CC[C@H]2[C@@H]3CCC4=CC(=O)CCC4=C3[C@@H](c3ccc(N(C)C)cc3)C[C@@]21C [CDB-4124, 21-methoxy-17α-acetoxy-11β-(4 N, N-dimethylaminophenyl)-19-norpregna-4,9-diene-3,20-dione]
quantity and size of DMBA-induced breast tumors [1]: effective in reducing the quantity and size
antiprogestational activity at the uterus, 50 mg oral dose versus 12.5 mg vaginal dose [2]: equivalent antiprogestational activity
antiprogestational activity of vaginal delivery relative to the same oral dose [2]: four
efficacy ([3]; every dose tested): demonstrated efficacy of the drug at every dose tested
endometrial thickening and potential for breakthrough uterine bleeding ([3]; higher doses (25 mg and 50 mg)): suppressed endometrial thickening
